{"source": "PubChem BioAssay AID602196 (INSERM, 2012)", "screen": "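Modifiers of cisplatin sensitivity in A549 cells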", "cell system": "human A549 lung cancer cells", "reagents": "siRNA pair against human genes", "duration": "48 h transfection before cisplatin; time from cisplatin to read-out not stated", "conditions": "cisplatin at a dose killing half of control-siRNA cells; exact dose and duration not given", "measured": "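Shift in cisplatin death relative to control siRNA, from -50 (all cells die) to +50 (no cells die); siRNAs harmful on their own scored 0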", "reading the numbers": "two-siRNA summed score (-2 to +2): higher = both siRNAs protect from cisplatin killing; -2 means both sensitise; mean protection from cisplatin (shift in death): higher = protection from cisplatin killing", "rule for the call": "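Each siRNA scores 0 if harmful alone by LDH or WST-1, otherwise +1 if it reduces and -1 if it increases cisplatin killing; a gene is active when both siRNAs agree (sum +2 or -2)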", "calls": "active = both siRNAs shift cisplatin killing the same way; inactive = no consistent shift, or siRNA harmful alone", "note": "Here is an unselected part of about 23,000 deposited reagents. In the full data, 455 (2%) were called active. 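Active includes both protection and sensitisation; some change values fall well beyond the stated -50 to +50 range.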 Further read-outs or replicates are left out here. Not stated in the record: the amount of reagent."}
{"target":"LOC341457","PubChem SID":"SID131508495","two-siRNA summed score (-2 to +2)":0,"mean protection from cisplatin (shift in death) (%)":1.1,"Outcome":"inactive"}
{"target":"KIAA1614","PubChem SID":"SID131513564","two-siRNA summed score (-2 to +2)":0,"mean protection from cisplatin (shift in death) (%)":6.7,"Outcome":"inactive"}
{"target":"IL16","PubChem SID":"SID131503169","two-siRNA summed score (-2 to +2)":0,"mean protection from cisplatin (shift in death) (%)":-12.6,"Outcome":"inactive"}
{"target":"C19orf18","PubChem SID":"SID131520704","two-siRNA summed score (-2 to +2)":1,"mean protection from cisplatin (shift in death) (%)":10.9,"Outcome":"inactive"}
{"target":"CTC1","PubChem SID":"SID131505907","two-siRNA summed score (-2 to +2)":0,"mean protection from cisplatin (shift in death) (%)":-2.4,"Outcome":"inactive"}
{"target":"LOC387762","PubChem SID":"SID131522717","two-siRNA summed score (-2 to +2)":1,"mean protection from cisplatin (shift in death) (%)":22.3,"Outcome":"inactive"}
{"target":"UBB","PubChem SID":"SID131515934","two-siRNA summed score (-2 to +2)":0,"mean protection from cisplatin (shift in death) (%)":9.9,"Outcome":"inactive"}
{"target":"SPTA1","PubChem SID":"SID131507346","two-siRNA summed score (-2 to +2)":0,"mean protection from cisplatin (shift in death) (%)":-0.3,"Outcome":"inactive"}
{"target":"CYLC2","PubChem SID":"SID131503309","two-siRNA summed score (-2 to +2)":0,"mean protection from cisplatin (shift in death) (%)":-11.1,"Outcome":"inactive"}
{"target":"IST1","PubChem SID":"SID131519765","two-siRNA summed score (-2 to +2)":1,"mean protection from cisplatin (shift in death) (%)":7.3,"Outcome":"inactive"}
{"target":"GTF3A","PubChem SID":"SID131501301","two-siRNA summed score (-2 to +2)":-1,"mean protection from cisplatin (shift in death) (%)":-10.7,"Outcome":"inactive"}
{"target":"PLSCR1","PubChem SID":"SID131502791","two-siRNA summed score (-2 to +2)":-1,"mean protection from cisplatin (shift in death) (%)":19,"Outcome":"inactive"}

2 neighbouring reagents already listed, for reference:
{"target":"LOC341457","PubChem SID":"SID131508495","two-siRNA summed score (-2 to +2)":0,"mean protection from cisplatin (shift in death) (%)":1.1,"Outcome":"inactive"}
{"target":"KIAA1614","PubChem SID":"SID131513564","two-siRNA summed score (-2 to +2)":0,"mean protection from cisplatin (shift in death) (%)":6.7,"Outcome":"inactive"}
